Data as given in the supplement of paper PMC6078165.

System: MDAMB468
Assay: relative JC-1 red fluorescence (viability) vs pre-drug, coculture with fibroblast (fraction); higher = more viable cancer cells
Method: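 JC-1 labelled TNBC cells cocultured 1:1 (1,500 cells each) with CellTrace Violet stained primary or stromal fibroblasts in 384-well plates in FluoroBrite medium, treated with one of 42 anticancer drugs at 0.1, 1, 10 or 100 uM. JC-1 red fluorescence (mitochondrial integrity in cancer cells only) was read by plate reader every 8 h for 72 h. Values are normalised to each well's pre-drug value. The stock of one drug was tenfold lower, so its dose labels may be too high.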

CO[C@H]1C[C@@H]2CC[C@@H](C)[C@@](O)(O2)C(=O)C(=O)N2CCCC[C@H]2C(=O)O[C@H]([C@H](C)C[C@@H]2CC[C@@H](OCCO)[C@H](OC)C2)CC(=O)[C@H](C)/C=C(\C)[C@@H](O)[C@@H](OC)C(=O)[C@H](C)C[C@H](C)/C=C/C=C/C=C/1C [Everolimus]
relative JC-1 red fluorescence
Settings | 8 h | 16 h | 24 h | 32 h | 40 h | 48 h | 56 h | 64 h | 72 h
10 µM, coculture fibroblast: C12385 | 0.885 ± 0.01 | 0.9035 ± 0.0076 | 0.883 ± 0.0098 | 0.851 ± 0.029 | 0.809 ± 0.013 | 0.80062 ± 0.00074 | 0.76 ± 0.013 | 0.719 ± 0.018 | 0.6982 ± 0.0061
10 µM, coculture fibroblast: H6013 | 0.8506 ± 0.0081 | 0.883 ± 0.015 | 0.8793 ± 0.0068 | 0.9 ± 0.013 | 0.879 ± 0.019 | 0.903 ± 0.022 | 0.873 ± 0.017 | 0.86 ± 0.016 | 0.819 ± 0.015
10 µM, coculture fibroblast: H6019 | 0.954 ± 0.061 | 0.844 ± 0.13 | 0.845 ± 0.15 | 0.861 ± 0.13 | 0.833 ± 0.16 | 0.985 ± 0.02 | 0.938 ± 0.023 | 0.931 ± 0.024 | 0.928 ± 0.02
10 µM, coculture fibroblast: H6076 | 0.914 ± 0.021 | 0.914 ± 0.11 | 0.895 ± 0.093 | 0.883 ± 0.071 | 0.833 ± 0.082 | 0.806 ± 0.096 | 0.86 ± 0.051 | 0.797 ± 0.024 | 0.842 ± 0.015
10 µM, coculture fibroblast: H6231 | 0.807 ± 0.019 | 0.8 ± 0.11 | 0.9678 ± 0.0061 | 0.933 ± 0.017 | 0.8998 ± 0.0055 | 0.869 ± 0.01 | 0.8042 ± 0.0049 | 0.777 ± 0.02 | 0.752 ± 0.03
10 µM, coculture fibroblast: HADF | 0.8921 ± 0.0045 | 0.901 ± 0.015 | 0.878 ± 0.011 | 0.912 ± 0.017 | 0.8684 ± 0.0027 | 0.8806 ± 0.0053 | 0.84277 ± 7.2e-05 | 0.8292 ± 0.0044 | 0.81334 ± 0.00073
10 µM, coculture fibroblast: HCFa | 0.8637 ± 0.0042 | 0.8517 ± 0.0038 | 0.8166 ± 0.0016 | 0.816 ± 0.009 | 0.753 ± 0.026 | 0.757 ± 0.041 | 0.713 ± 0.03 | 0.677 ± 0.044 | 0.648 ± 0.05
10 µM, coculture fibroblast: HCPF | 0.839 ± 0.028 | 0.937 ± 0.022 | 0.917 ± 0.039 | 0.929 ± 0.036 | 0.873 ± 0.039 | 0.852 ± 0.051 | 0.801 ± 0.043 | 0.784 ± 0.053 | 0.781 ± 0.06
10 µM, coculture fibroblast: HHSteC | 0.859 ± 0.0031 | 0.8822 ± 0.0087 | 0.88 ± 0.0019 | 0.876 ± 0.012 | 0.841 ± 0.0066 | 0.8525 ± 0.004 | 0.7938 ± 0.0021 | 0.7754 ± 0.002 | 0.7451 ± 0.007
10 µM, coculture fibroblast: HMF | 0.806 ± 0.033 | 0.976 ± 0.013 | 0.9372 ± 0.006 | 0.936 ± 0.01 | 0.878 ± 0.02 | 0.865 ± 0.024 | 0.809 ± 0.023 | 0.799 ± 0.031 | 0.784 ± 0.046
10 µM, coculture fibroblast: HPFa | 0.891 ± 0.012 | 0.915 ± 0.019 | 0.898 ± 0.019 | 0.8698 ± 0.0086 | 0.8382 ± 0.0015 | 0.8532 ± 0.0035 | 0.7995 ± 0.0023 | 0.7896 ± 0.0039 | 0.727 ± 0.0091
10 µM, coculture fibroblast: HUF | 0.945 ± 0.017 | 0.958 ± 0.0097 | 0.944 ± 0.03 | 0.905 ± 0.041 | 0.863 ± 0.042 | 0.86 ± 0.048 | 0.828 ± 0.064 | 0.811 ± 0.06 | 0.802 ± 0.075
10 µM, coculture fibroblast: Hs5 | 0.9412 ± 0.0055 | 0.95443 ± 0.00014 | 0.941 ± 0.019 | 0.936 ± 0.026 | 0.894 ± 0.021 | 0.867 ± 0.034 | 0.832 ± 0.033 | 0.81 ± 0.032 | 0.843 ± 0.032
10 µM, coculture fibroblast: Hs27A | 0.822 ± 0.0035 | 0.842 ± 0.019 | 0.793 ± 0.014 | 0.8158 ± 0.0044 | 0.76 ± 0.012 | 0.776 ± 0.022 | 0.746 ± 0.02 | 0.739 ± 0.019 | 0.717 ± 0.012
10 µM, coculture fibroblast: Hs343T | 0.875 ± 0.024 | 0.867 ± 0.16 | 0.9254 ± 0.00065 | 0.897 ± 0.021 | 0.901 ± 0.077 | 0.881 ± 0.076 | 0.837 ± 0.073 | 0.826 ± 0.086 | 0.801 ± 0.082
10 µM, coculture fibroblast: WS1 | 0.9 ± 0.018 | 0.878 ± 0.015 | 0.8468 ± 0.003 | 0.82 ± 0.032 | 0.787 ± 0.058 | 0.764 ± 0.075 | 0.744 ± 0.09 | 0.723 ± 0.096 | 0.708 ± 0.092
100 µM, coculture fibroblast: C12385 | 0.923 ± 0.085 | 0.782 ± 0.13 | 0.621 ± 0.11 | 0.418 ± 0.055 | 0.3032 ± 0.0026 | 0.281 ± 0.033 | 0.276 ± 0.04 | 0.293 ± 0.038 | 0.297 ± 0.034
100 µM, coculture fibroblast: H6013 | 0.829 ± 0.14 | 0.855 ± 0.013 | 0.869 ± 0.026 | 0.869 ± 0.12 | 0.708 ± 0.11 | 0.609 ± 0.081 | 0.525 ± 0.059 | 0.471 ± 0.00085 | 0.417 ± 0.037
100 µM, coculture fibroblast: H6019 | 0.801 ± 0.11 | 0.944 ± 0.063 | 0.746 ± 0.047 | 0.596 ± 0.048 | 0.463 ± 0.053 | 0.378 ± 0.04 | 0.323 ± 0.026 | 0.285 ± 0.01 | 0.274 ± 0.052
100 µM, coculture fibroblast: H6076 | 0.951 ± 0.0071 | 0.97102 ± 0.00012 | 0.928 ± 0.04 | 0.931 ± 0.064 | 0.854 ± 0.11 | 0.852 ± 0.12 | 0.82 ± 0.12 | 0.812 ± 0.14 | 0.868 ± 0.12
100 µM, coculture fibroblast: H6231 | 0.7933 ± 0.0022 | 0.834 ± 0.11 | 0.883 ± 0.16 | 0.885 ± 0.15 | 0.96366 ± 0.00054 | 0.951 ± 0.017 | 0.896 ± 0.021 | 0.881 ± 0.046 | 0.869 ± 0.044
100 µM, coculture fibroblast: HADF | 0.774 ± 0.09 | 0.881 ± 0.047 | 0.788 ± 0.03 | 0.839 ± 0.092 | 0.696 ± 0.14 | 0.596 ± 0.071 | 0.508 ± 0.015 | 0.522 ± 0.048 | 0.49 ± 0.046
100 µM, coculture fibroblast: HCFa | 0.7707 ± 0.0038 | 0.891 ± 0.034 | 0.801 ± 0.15 | 0.813 ± 0.092 | 0.8345 ± 0.0032 | 0.692 ± 0.0085 | 0.537 ± 0.0068 | 0.448 ± 0.0075 | 0.414 ± 0.017
100 µM, coculture fibroblast: HCPF | 0.876 ± 0.017 | 0.968 ± 0.041 | 0.908 ± 0.039 | 0.906 ± 0.036 | 0.854 ± 0.04 | 0.833 ± 0.027 | 0.784 ± 0.034 | 0.766 ± 0.031 | 0.753 ± 0.022
100 µM, coculture fibroblast: HHSteC | 0.762 ± 0.046 | 0.835 ± 0.042 | 0.902 ± 0.051 | 0.8093 ± 0.0016 | 0.796 ± 0.16 | 0.699 ± 0.1 | 0.561 ± 0.066 | 0.462 ± 0.0072 | 0.389 ± 0.086
100 µM, coculture fibroblast: HMF | 0.885 ± 0.066 | 0.712 ± 0.0081 | 0.849 ± 0.18 | 0.864 ± 0.091 | 0.81 ± 0.13 | 0.798 ± 0.11 | 0.827 ± 0.011 | 0.783 ± 0.044 | 0.78549 ± 0.00072
100 µM, coculture fibroblast: HPFa | 0.883 ± 0.074 | 0.848 ± 0.089 | 0.886 ± 0.044 | 0.791 ± 0.13 | 0.761 ± 0.077 | 0.768 ± 0.25 | 0.607 ± 0.21 | 0.51 ± 0.19 | 0.448 ± 0.15
100 µM, coculture fibroblast: HUF | 0.772 ± 0.064 | 0.914 ± 0.099 | 0.767 ± 0.15 | 0.62 ± 0.14 | 0.472 ± 0.13 | 0.394 ± 0.12 | 0.375 ± 0.14 | 0.402 ± 0.16 | 0.412 ± 0.16
100 µM, coculture fibroblast: Hs5 | 0.89 ± 0.12 | 0.84 ± 0.057 | 0.791 ± 0.13 | 0.671 ± 0.24 | 0.637 ± 0.33 | 0.564 ± 0.3 | 0.618 ± 0.4 | 0.512 ± 0.27 | 0.627 ± 0.36
100 µM, coculture fibroblast: Hs27A | 0.924 ± 0.053 | 0.849 ± 0.048 | 0.737 ± 0.063 | 0.743 ± 0.094 | 0.69 ± 0.18 | 0.626 ± 0.13 | 0.547 ± 0.084 | 0.511 ± 0.014 | 0.453 ± 0.012
100 µM, coculture fibroblast: Hs343T | 0.807 ± 0.061 | 0.81731 ± 0.00047 | 0.697 | 0.728 | 0.668 | 0.656 | 0.619 | 0.6 | 0.603
100 µM, coculture fibroblast: WS1 | 0.912 ± 0.014 | 0.819 ± 0.052 | 0.616 ± 0.096 | 0.448 ± 0.028 | 0.3305 ± 0.0012 | 0.29 ± 0.0094 | 0.291 ± 0.018 | 0.305 ± 0.016 | 0.318 ± 0.019

± gives the standard deviation of the averaged measurements. Values are relative to the signal before dosing, not to a vehicle control; the signal also falls without drug.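 Labels refer to human fibroblasts, largely primary: uterine (C12385, HUF), lung (H6013), bone (Hs27A), adrenal (HADF), skin (WS1), plus mammary HMF and breast cancer-associated Hs343T. Cancer lines are basal-like or mesenchymal-like triple-negative breast cancer. The paper counts as hits responses shifting over 3x the replicate standard deviation. The tissue of the other fibroblasts is not given here.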
